Test results as given in article PMC11706664, “Structure of WzxE the lipid III flippase for Enterobacterial Common Antigen polysaccharide” (Open Biology, 2025).
These are yes or no findings as the source states them, for the method shown.

Molecular target: WzxE, the lipid III flippase from Escherichia coli (E. coli K-12 MG1655) (UniProt P0AAA7)
Assay: crystal structure; WzxE-Nb10 complex crystallized in lipidic cubic phase (monoolein:ECP) at 20°C; outward-facing conformation (PDB 9G95, 9G97); both purified

B1: WzxE, the lipid III flippase from Escherichia coli (protein, UniProt P0AAA7 1-416)
chain: MVSLAKASLWTAASTLVKIGAGLLVGKLLAVSFGPAGLGLAANFRQLITVLGVLAGAGIFNGVTKYVAQYHDNPQQLRRVVGTSSAMVLGFSTLMALVFVLAAAPISQGLFGNTDYQGLVRLVALVQMGIAWGNLLLALMKGFRDAAGNALSLIVGSLIGVLAYYVSYRLGGYEGALLGLALIPALVVIPAAIMLIKRGVIPLSYLKPSWDNGLAGQLSKFTLMALITSVTLPVAYIMMRKLLAAQYSWDEVGIWQGVSSISDAYLQFITASFSVYLLPTLSRLTEKRDITREVVKSLKFVLPAVAAASFTVWLLRDFAIWLLLSNKFTAMRDLFAWQLVGDVLKVGAYVFGYLVIAKASLRFYILAEVSQFTLLMVFAHWLIPAHGALGAAQAYMATYIVYFSLCCGVFLLWRRRA
  binding: no binding
